PubChem BioAssay AID1224830 – NIAID, 2016

- Assay: 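Genes whose knock-down alters the TNF-alpha reporter response to LPS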 (primary screen)
- Cell system: human THP-1 monocytic leukaemia cells, TNF dual-luciferase reporter clone, PMA-differentiated to macrophage-like cells
- Knock-down reagent: siRNA pool against human genes, 50 nM
- Timing: LPS for 4 h, given about 3 days after siRNA transfection
- Treatment: bacterial LPS (TLR4 ligand), 10 ng/ml
- Measurement: 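TNF firefly reporter luminescence divided by renilla, normalised to the plate median, then turned into a robust z-score for each replicate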
- Direction: TNF reporter robust z-score: higher = stronger TNF reporter response to LPS
- Call rule: 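Each well counts as active if its z-score is over 2.8 or under -1.5; controls are left without a call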
This is a random part of about 18,000 reagents. About 2,900 of them (16%) were called active. 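Calls are made per well; low scores hint the gene aids the LPS response, high scores that it dampens it.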 Entries without a mark were called inactive. Repeated entries: four replicate wells of each siRNA pool. No sequences are given here.

| target gene | PubChem SID | TNF reporter robust z-score |
| --- | --- | --- |
| TMEM178A | SID315461872 | -0.26 |
| TMEM178A | SID315461872 | -0.32 |
| TMEM178A | SID315461872 | -0.35 |
| TMEM178A | SID315461872 | -0.17 |
| ABCB9 | SID315455254 | 0.66 |
| ABCB9 | SID315455254 | -0.66 |
| ABCB9 | SID315455254 | 1.49 |
| ABCB9 | SID315455254 | 0.06 |
| MCEE | SID315460469 | -1.38 |
| MCEE | SID315460469 | -0.61 |
| MCEE | SID315460469 | -0.55 |
| MCEE | SID315460469 | -0.24 |
| RSPH9 | SID315463294 | -0.45 |
| RSPH9 | SID315463294 | -0.96 |
| RSPH9 | SID315463294 | -1.25 |
| RSPH9 | SID315463294 | -0.14 |
| MAPK3 | SID315450819 | -0.55 |
| MAPK3 | SID315450819 | 0.49 |
| MAPK3 | SID315450819 | -0.35 |
| MAPK3 | SID315450819 | 0.52 |
| STARD7 | SID315458152 | -0.3 |
| STARD7 | SID315458152 | 1.11 |
| STARD7 | SID315458152 | -0.37 |
| STARD7 | SID315458152 | 0.42 |
| HTR5A | SID315449370 | -0.67 |
| HTR5A | SID315449370 | -0.63 |
| HTR5A | SID315449370 | -0.64 |
| HTR5A | SID315449370 | -0.2 |
| LOC642678 (retired record) | SID315465071 | 2.26 |
| LOC642678 (retired record) | SID315465071 | 0.09 |
| LOC642678 (retired record) | SID315465071 | -0.73 |
| LOC642678 (retired record) | SID315465071 | 0.23 |

Continued; the last 10 above are carried over.
| target gene | PubChem SID | TNF reporter robust z-score |
| --- | --- | --- |
| STARD7 | SID315458152 | -0.37 |
| STARD7 | SID315458152 | 0.42 |
| HTR5A | SID315449370 | -0.67 |
| HTR5A | SID315449370 | -0.63 |
| HTR5A | SID315449370 | -0.64 |
| HTR5A | SID315449370 | -0.2 |
| LOC642678 (retired record) | SID315465071 | 2.26 |
| LOC642678 (retired record) | SID315465071 | 0.09 |
| LOC642678 (retired record) | SID315465071 | -0.73 |
| LOC642678 (retired record) | SID315465071 | 0.23 |
| WNT9A | SID315452152 | -0.6 |
| WNT9A | SID315452152 | 0.93 |
| WNT9A | SID315452152 | -1.18 |
| WNT9A | SID315452152 | -0.23 |
| TFF3 | SID315451841 | -0.6 |
| TFF3 | SID315451841 | -0.62 |
| TFF3 | SID315451841 | -0.9 |
| TFF3 | SID315451841 | -0.43 |
| PEX39 | SID315464931 | -0.85 |
| PEX39 | SID315464931 | -1.11 |
| PEX39 | SID315464931 | -0.95 |
| PEX39 | SID315464931 | -0.94 |
| CKAP4 | SID315454499 | 0.66 |
| CKAP4 | SID315454499 | 0.64 |
| CKAP4 | SID315454499 | -1.13 |
| CKAP4 | SID315454499 | -0.5 |
| ZNF107 | SID315456704 | 1.18 |
| ZNF107 | SID315456704 | 3.13 (active) |
| ZNF107 | SID315456704 | 1.38 |
| ZNF107 | SID315456704 | 1.77 |
| PLA1A | SID315456672 | 0.59 |
| PLA1A | SID315456672 | 1.21 |
| PLA1A | SID315456672 | 1.67 |
| RGL4 | SID315463605 | -0.8 |
| RGL4 | SID315463605 | 0.14 |
| RGL4 | SID315463605 | -0.49 |
| RGL4 | SID315463605 | -0.78 |
| GMPS | SID315452859 | -0.5 |
| GMPS | SID315452859 | 0.28 |
| GMPS | SID315452859 | -0.24 |
| GMPS | SID315452859 | 0.26 |
| KIF19 | SID315461623 | -0.46 |
| KIF19 | SID315461623 | 3.88 (active) |
| KIF19 | SID315461623 | 4.16 (active) |
| KIF19 | SID315461623 | 0.2 |
| SPG21 | SID315456648 | -0.03 |
| SPG21 | SID315456648 | 0.26 |
| SPG21 | SID315456648 | 0.63 |
| SPG21 | SID315456648 | -1.17 |
| RPS2 | SID315451213 | -1.81 (active) |
| RPS2 | SID315451213 | -1.38 |
| RPS2 | SID315451213 | -1.41 |
| RPS2 | SID315451213 | -1.07 |
